The test system of this data set is mSWI/SNF complexes. As to the kind of experiment: mSWI/SNF complex purification with HA-tagged baits and mass spectrometry (peptide counts). Further details: species or system human. The note with it: 293_HA-BRD7 bait purification, mass spectrometry; for Total: total peptide count per identified protein; for Unique: unique peptide count per identified protein.

B1: EEF1D (protein, UniProt P29692 2-281, looked up)
Elongation factor 1-delta: ATNFLAHEKIWFDKFKYDDAERRFYEQMNGPVAGASRQENGASVILRDIARARENIQKSLAGSSGPGASSGTSGDHGELVVRIASLEVENQSLRGVVQELQQAISKLEARLNVLEKSSPGHRATAPQTQHVSPMRQVEPPAKKPATPAEDDEDDDIDLFGSDNEEEDKEAAQLREERLRQYAEKKAKKPALVAKSSILLDVKPWDDETDMAQLEACVRSIQLDGLVWGASKLVPVGYGIRKLQIQCVVEDDKVGTDLLEEEITKFEEHVQSVDIAAFNKI
B1 returned a Total of 1 and a Unique of 1.

B2: DDX24 (protein, UniProt Q9GZR7 1-859, looked up)
ATP-dependent RNA helicase …: MKLKDTKSRPKQSSCGKFQTKGIKVVGKWKEVKIDPNMFADGQMDDLVCFEELTDYQLVSPAKNPSSLFSKEAPKRKAQAVSEEEEEEEGKSSSPKKKIKLKKSKNVATEGTSTQKEFEVKDPELEAQGDDMVCDDPEAGEMTSENLVQTAPKKKKNKGKKGLEPSQSTAAKVPKKAKTWIPEVHDQKADVSAWKDLFVPRPVLRALSFLGFSAPTPIQALTLAPAIRDKLDILGAAETGSGKTLAFAIPMIHAVLQWQKRNAAPPPSNTEAPPGETRTEAGAETRSPGKAEAESDALPDDTVIESEALPSDIAAEARAKTGGTVSDQALLFGDDDAGEGPSSLIREKPVPKQNENEEENLDKEQTGNLKQELDDKSATCKAYPKRPLLGLVLTPTRELAVQVKQHIDAVARFTGIKTAILVGGMSTQKQQRMLNRRPEIVVATPGRLWELIKEKHYHLRNLRQLRCLVVDEADRMVEKGHFAELSQLLEMLNDSQYNPKRQTLVFSATLTLVHQAPARILHKKHTKKMDKTAKLDLLMQKIGMRGKPKVIDLTRNEATVETLTETKIHCETDEKDFYLYYFLMQYPGRSLVFANSISCIKRLSGLLKVLDIMPLTLHACMHQKQRLRNLEQFARLEDCVLLATDVAARGLDIPKVQHVIHYQVPRTSEIYVHRSGRTARATNEGLSLMLIGPEDVINFKKIYKTLKKDEDIPLFPVQTKYMDVVKERIRLARQIEKSEYRNFQACLHNSWIEQAAAALEIELEEDMYKGGKADQQEERRRQKQMKVLKKELRHLLSQPLFTESQKTKYPTQSGKPPLLVSAPSKSESALSCLSKQKKKKTKKPKEPQPEQPQPSTSAN
For the molecule B2, the Total worked out at 1 and the Unique is 1.

B3: DNAJC11 (protein, UniProt Q9NVH1 2-559, looked up)
DnaJ homolog subfamily C …: ATALSEEELDNEDYYSLLNVRREASSEELKAAYRRLCMLYHPDKHRDPELKSQAERLFNLVHQAYEVLSDPQTRAIYDIYGKRGLEMEGWEVVERRRTPAEIREEFERLQREREERRLQQRTNPKGTISVGVDATDLFDRYDEEYEDVSGSSFPQIEINKMHISQSIEAPLTATDTAILSGSLSTQNGNGGGSINFALRRVTSAKGWGELEFGAGDLQGPLFGLKLFRNLTPRCFVTTNCALQFSSRGIRPGLTTVLARNLDKNTVGYLQWRWGIQSAMNTSIVRDTKTSHFTVALQLGIPHSFALISYQHKFQDDDQTRVKGSLKAGFFGTVVEYGAERKISRHSVLGAAVSVGVPQGVSLKVKLNRASQTYFFPIHLTDQLLPSAMFYATVGPLVVYFAMHRLIIKPYLRAQKEKELEKQRESAATDVLQKKQEAESAVRLMQESVRRIIEAEESRMGLIIVNAWYGKFVNDKSRKSEKVKVIDVTVPLQCLVKDSKLILTEASKAGLPGFYDPCVGEEKNLKVLYQFRGVLHQVMVLDSEALRIPKQSHRIDTDG
B3 registered a Total of 1 and a Unique of 1.

B4: ISG20L2 (protein, UniProt Q9H9L3 1-353, looked up)
Interferon-stimulated 20 kDa …: MSTLLLNLDFGEPPPKKALEGNAKHRNFVKKRRLLERRGFLSKKNQPPSKAPKLHSEPSKKGETPTVDGTWKTPSFPKKKTAASSNGSGQPLDKKAAVSWLTPAPSKKADSVAAKVDLLGEFQSALPKINSHPTRSQKKSSQKKSSKKNHPQKNAPQNSTQAHSENKCSGASQKLPRKMVAIDCEMVGTGPKGHVSSLARCSIVNYNGDVLYDEYILPPCHIVDYRTRWSGIRKQHMVNATPFKIARGQILKILTGKIVVGHAIHNDFKALQYFHPKSLTRDTSHIPPLNRKADCPENATMSLKHLTKKLLNRDIQVGKSGHSSVEDAQATMELYKLVEVEWEEHLARNPPTD
Molecule B4 displayed a Total of 1 and a Unique of 1.

Values taken from patent publication US12729225B2, “Non-canonical SWI/SNF complex and uses thereof” (Dana-Farber Cancer Institute, Inc., priority 2018, dated 2026).
